Source: ChEMBL document CHEMBL3988442, “University of Dundee, Small-Polar-MMV Screening Library” (2021).

Sequences of proteins named here, by UniProt entry; tags and fusion partners are left off. Residues count along the entry.
UniProt Q8IDJ8, 1-583: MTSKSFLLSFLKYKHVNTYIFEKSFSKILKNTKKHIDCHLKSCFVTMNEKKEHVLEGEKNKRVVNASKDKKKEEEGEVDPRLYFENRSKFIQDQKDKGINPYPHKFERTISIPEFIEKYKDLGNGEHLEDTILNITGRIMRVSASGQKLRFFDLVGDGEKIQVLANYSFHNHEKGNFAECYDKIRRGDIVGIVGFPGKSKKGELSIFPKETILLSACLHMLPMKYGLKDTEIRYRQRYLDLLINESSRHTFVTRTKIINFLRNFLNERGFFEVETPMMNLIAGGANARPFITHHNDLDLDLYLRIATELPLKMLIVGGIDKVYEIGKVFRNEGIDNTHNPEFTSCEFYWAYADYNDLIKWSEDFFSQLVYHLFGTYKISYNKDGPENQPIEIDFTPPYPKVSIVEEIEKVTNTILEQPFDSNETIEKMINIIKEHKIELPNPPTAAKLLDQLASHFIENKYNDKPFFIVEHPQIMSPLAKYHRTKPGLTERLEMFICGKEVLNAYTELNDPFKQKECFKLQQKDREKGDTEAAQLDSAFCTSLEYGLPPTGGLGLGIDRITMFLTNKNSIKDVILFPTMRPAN

A: 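Assay of Toxoplasma gondii numbers, read through their beta-galactosidase reporter with a colour substrate. Concentration: 10 µM. The record gives no direction; the compounds picked for IC50 retests had high values, so higher reads as fewer parasites. Of about 67,000 compounds tested this way, about 260 (0.38%) reached 50% or more in at least one test.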
B: 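Whole-parasite assay of Trypanosoma brucei over 72 hours; the read-out is not stated. Compounds at 30 µM. Higher reads as stronger inhibition (inferred: compounds with an IC50 in retests scored well above the rest). Values scatter widely below zero; nearly all retest evidence comes from the higher of the two concentrations used. About 64,000 compounds were tested under these conditions; 1.5% (about 940) showed 50% or more at least once.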
C: 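Cell assay of Leishmania donovani living inside macrophages; the read-out is not stated. Concentration: 30 µM. Direction is inferred from retests: higher values go with stronger inhibition. Of about 69,000 compounds tested this way, about 1,000 (1.5%) reached 50% or more in at least one test.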
D: 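Enzyme assay of the cytosolic lysyl-tRNA synthetase in 384-well plates, read by luminescence. Target: Lysine-tRNA ligase, Plasmodium falciparum 3D7 (UniProt Q8IDJ8). Concentration: 30 µM. Higher reads as stronger inhibition, judged from the few compounds that gave an IC50. About 69,000 compounds were tested under these conditions; 0.071% (about 49) showed 50% or more at least once.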

The filed quantity is “Percent Effect” (%).
The record does not define 0% and 100%; most values in the screen are far below 50% and negative numbers occur (in some assays of this library far below -100).
Compounds were drawn at random from those tested, without regard to their results.
Two or more numbers in one place are separate tests of the same structure; such repeats can differ widely.
A dash means the value is not listed here; it may have been measured.

SMILES	A	B	C	D
CNC(=O)C1CCN(C(=O)c2coc(COc3ccc(OC)cc3)n2)C1 (configuration not stated)	-3.325%	-27.89%	9.772%	0.9437%
CCNC(=O)C1(CC2CC(c3ccccc3OC)=NO2)CCOCC1 (configuration not stated)	0.8527%	-11.54%	20.69% and 11.17%	-0.914%
O=C1N(CCCc2ccccc2)CCCC12CCN(C(CO)CO)C2 (configuration not stated)	-2.833%	-20.46%	6.27%	6.016%
O=C(CN1CCN(c2ncnc3cccc(F)c23)CC1)N1CCCC1	4.063%	-24.05%	21.39%	-0.8467%
CCCC(=O)N1CCCCC1C(=O)Nc1ccc(-c2nnc[nH]2)cc1 (configuration not stated)	-1.591%	10.37%	1.591%	15.57%
CN(C)CCN1CCN(C(=O)c2ccn(C)c(=O)c2)CC1	-2.184%	-24.69%	6.987%	1.271%
CC(C)CN1CCO[C@H]2CCN(c3cnccn3)CC[C@@H]21	-	-	-	2.897%
CCN(CC)CC1CN(Cc2cccc(C#N)c2)Cc2nccn2C1 (configuration not stated)	-	-	-	6.62%
CCc1nnc(CN(C)CC2CCCCC2)o1	-7.189%	-20.72%	-2.594%	-3.317%
CS(=O)(=O)N1CCCC(Cc2cncc(Br)c2)CC1 (configuration not stated)	2.814%	0.9299%	9.8% and 8.087%	1.917%
CNS(=O)(=O)c1ccc(CNC(=O)C2CCCO2)cc1 (configuration not stated)	-2.955%	0.05103%	-5.946%	2.256%
COc1ccc2cc(-c3n[nH]cc3CN3CCSCC3)ccc2c1	13.5%	15.1%	24.52%	-3.886%
Cn1nnc2c1CCN(C(=O)C1CCC1)C2COCCN1CCCC1 (configuration not stated)	-	-	-	7.654%
COCC(NC(=O)c1cccnc1)c1cccc(C(F)(F)F)c1 (configuration not stated)	15.49%	-12.65%	-14.03%	1.46%
CC(C)c1cc(NC(=O)CN2CCCC(Cn3cncn3)C2)on1 (configuration not stated)	-3.709%	-40.3%	-2.024%	-1.651%
Cc1ccc(C(=O)N2CCCCC2c2[nH]ncc2S(C)(=O)=O)cn1 (configuration not stated)	-5.774%	5.561%	17.74% and 18.47%	3.953%
O=C1CCCCN1CCc1nc(-c2cccnn2)no1	-4.415%	-7.651%	9.202%	4.041%
CN(C)c1ncc(-c2cc(C(=O)NCCO)n(CC3CC3)c2)cn1.O=C(O)C(F)(F)F	0.7422%	-5.983%	6.298%	-
Cc1cc(CN2CCN(Cc3cnc4c(c3)c(C)nn4C)CC2)on1	-5.628%	-14.69%	32.98%	2.211%
CCNC(=O)c1nc2c(s1)CCCN2S(C)(=O)=O	4.594%	3.807%	21.62%	-5.078%
Cn1ccnc1C(=O)NCCS(=O)(=O)c1ccc(C(C)(C)C)cc1	-6.555%	-14.01%	22.71%	4.255%
CS(=O)(=O)NCCCN1CCCC1c1ccsc1 (configuration not stated)	5.112%	-	15.85%	1.75%
CN(Cc1ccsc1)C(=O)Nc1ccc(=O)n(C)c1	16.21%	-12.11%	14.3%	28.36%
Cn1cc(CN2Cc3c(cnn3C)C(COCC3CC3)C2)cn1.O=C(O)C(F)(F)F.O=C(O)C(F)(F)F (configuration not stated)	-3.846%	-48.81%	-2.121%	-
Cn1c(Cn2ccnc2)nnc1C1CCCN(CC(C)(C)C)C1 (configuration not stated)	-5.507%	-22.44%	6.485%	3.482%
O=C(c1nc(=O)[nH][nH]1)N1CCCCCC1	-	-18.93%	20.29%	-2.376%
CC(=O)NCC(=O)N1CCOC2(CCCN(c3ccc(C)nn3)C2)C1 (configuration not stated)	-10.32%	-65.72%	-1.775%	-2.371%
Cc1cnn(CCC(=O)N2CCOC(c3nc(C(C)(C)C)n[nH]3)C2)c1 (configuration not stated)	-0.4653%	-39.3%	8.852%	-2.662%
COc1cccc(C2CCCN2C(=O)CC2=CSC3=NCCCN23)c1 (configuration not stated)	10.14%	-14.14%	0.9404%	9.647%
COCCNC(=O)[C@H]1CN2CCC1C[C@@H]2Cn1cc(C(C)(C)C)nn1 (some centres not stated)	10.76%	-6.53%	25.2%	2.093%
COc1ccc(C[C@H]2CN(C(=O)CN(C)C)CC[C@H]2OC)cc1.O=C(O)C(F)(F)F	-0.8448%	4.427%	15.38%	-
Cc1nnc([C@@H]2CC[C@@H]3[C@@H](CCN3S(C)(=O)=O)O2)o1	-	-	-	1.765%
[H][C@]12CC[C@]([H])(CN(C(=O)Cc3nonc3C)C1)N(Cc1ccccc1)C2=O	-1.385%	-18.48%	-4.497%	-
CC(C)N1CCC2(CCCN(Cc3ccc(F)cc3)C2=O)C1 (configuration not stated)	9.359%	-27.48%	12.06%	-3.484%
Cc1c(CN2CCCCC2)c(O)n(CCCO)c(=O)c1C#N	11.92%	10.63%	7.799%	2.678%
CC1CCCN(C(=O)c2ccc(N(C)Cc3cnn(C)c3)nc2)C1 (configuration not stated)	11.46%	-8.488%	15.78%	1.563%
CC(C)[C@@H]1CN(C(=O)CN(C)Cc2ccccc2)C[C@H]1C(=O)O	-6.456%	-42.3%	20.72%	-0.0231%
COc1ccc(NC(=O)NC(C)Cn2cccn2)cn1 (configuration not stated)	10.31%	-16.14%	23.59%	-0.8339%
CN(C)C(=O)CN1CCN(C(=O)Cc2csc(-c3ncccn3)n2)CC1	-15.81%	-20.59%	11.93%	3.917%
Cc1ncc(CNCC(=O)NC2CCCCC2)n1-c1ccccc1	-4.353%	-4.456%	-2.322%	-1.813%
CN(CC(=O)N1CCCC(n2ccnc2)C1)c1cnccn1 (configuration not stated)	12.47%	-41.2%	9.013%	3.556%
Cc1nc(CN2CCc3ncnc(C4CC4)c3CC2)cs1	-	-	-	2.322%
Cn1cnnc1C1CCN(C(=O)CCCOCc2ccccc2)CC1	-5.93%	-2.316%	8.716%	-5.929%
CCn1cc(Br)c(C(=O)NCc2cccnc2)n1	0.1692%	-39.53%	0.8694%	0.9192%
Cc1nc2cc(NC(=O)Cn3ncc(N4CCCC4)cc3=O)ccc2s1	-3.476%	-9.052%	37.99%	1.546%
[H][C@@]12CCN(C(=O)c3ccsc3)[C@]1([H])CCC(=O)N2CC1CC1	5.218%	-	11.28%	-
O=C(NCc1cncc2c1CCN(C1CCOC1)C2)c1ccco1 (configuration not stated)	-	-	-	4.46%
O=C(O)C(F)(F)F.[H][C@]12CCC[C@@]1(COCc1ccccn1)CN(C(=O)CS(C)(=O)=O)C2	3.497%	-	12.22%	-
Cn1cnc(CN2Cc3nccn3CC2c2ccccc2)c1 (configuration not stated)	5.429%	-28.86%	3.523%	1.514%
Cc1oncc1C(=O)N1CCOCC2(CCN(c3ccccn3)C2)C1.O=C(O)C(F)(F)F (configuration not stated)	-13.94%	16.51%	8.602%	-
CCC(c1nc(CC(C)C)nn1-c1ccccn1)n1cccn1 (configuration not stated)	-13.94%	2.873%	15.26%	-3.352%
CCCNC(=O)C(C)N1CCC(C(=O)Nc2cnn(CC)c2)CC1 (configuration not stated)	3.89%	-15.41%	22.89%	2.694%
Cc1cc(N2CCCC2c2nc(C)cc(CCC(=O)O)n2)ncn1 (configuration not stated)	2.937%	-0.05019%	19.56% and 19.7%	1.052%
COC(=O)CSCc1noc(-c2ccc(C)cc2)n1	11.11%	-55.42%	20.82%	-0.231%

Some entries from above, unchanged:

SMILES	A	B	C	D
Cc1ccc(C(=O)N2CCCCC2c2[nH]ncc2S(C)(=O)=O)cn1 (configuration not stated)	-5.774%	5.561%	17.74% and 18.47%	3.953%
CCNC(=O)C1(CC2CC(c3ccccc3OC)=NO2)CCOCC1 (configuration not stated)	0.8527%	-11.54%	20.69% and 11.17%	-0.914%
Cc1cc(N2CCCC2c2nc(C)cc(CCC(=O)O)n2)ncn1 (configuration not stated)	2.937%	-0.05019%	19.56% and 19.7%	1.052%
CCCNC(=O)C(C)N1CCC(C(=O)Nc2cnn(CC)c2)CC1 (configuration not stated)	3.89%	-15.41%	22.89%	2.694%